Data: the supplement of paper PMC10398353
Counter-ions that a name gives are not always drawn. ± gives the standard deviation of the averaged measurements. This is one part of the list. Single values of this set are uncertain.

The compounds below were run on Salmonella enterica serovar Typhimurium ST313 D23580 (assay: normalized bacterial growth (OD600 20 h minus 0 h, interquartile-mean normalized) (fraction of plate interquartile mean); higher = more bacterial growth (less inhibition)). Details: LPM (pH 5.8, low phosphate, low Mg2+), concentration: 10 µM, temperature: 37 °C.

SMILES	normalized bacterial growth
COc1ccc(CCN(C)CCCC(C#N)(c2cc(OC)c(OC)c(OC)c2)C(C)C)cc1OC (stereo not drawn) [()-Methoxyverapamil hydrochloride]	0.534
Nc1cc(C(Cl)=C(Cl)Cl)c(S(N)(=O)=O)cc1S(N)(=O)=O	0.963
CC[C@H](C)C(=O)O[C@H]1CCC=C2C=C[C@H](C)[C@H](CC[C@@H]3C[C@@H](O)CC(=O)O3)[C@H]21	0.772
O=C1c2ccccc2-n2c1nc1ccccc1c2=O	1.01
O=C(NCO)c1cccnc1	1.01
CO[C@@H]1[C@@H](OC(N)=O)[C@@H](O)[C@H](Oc2ccc3c(O)c(NC(=O)c4ccc(O)c(CC=C(C)C)c4)c(=O)oc3c2C)OC1(C)C [Novobiocin sodium salt]	1.02
CO[C@@H]1[C@@H](OC(N)=O)[C@@H](O)[C@H](Oc2ccc3c(O)c(NC(=O)c4ccc(O)c(CC=C(C)C)c4)c(=O)oc3c2C)OC1(C)C	0.864
CC(=O)Oc1cccc(O)c1	1.03
C/C1=C\CCC(=O)C2CC(C)(C)C2CC1 (stereo not drawn)	1.03
CCN1CCN(C(=O)N[C@@H](C(=O)N[C@@H]2C(=O)N3[C@@H]2SC(C)(C)[C@@H]3C(=O)O)c2ccccc2)C(=O)C1=O [Piperacillin sodium salt]	1.04
CCN1CCN(C(=O)N[C@@H](C(=O)N[C@@H]2C(=O)N3[C@@H]2SC(C)(C)[C@@H]3C(=O)O)c2ccccc2)C(=O)C1=O	1.25
CC(=O)N[C@@H](CCC(=O)O)C(=O)O	0.715
CN1CCCC(n2nc(Cc3ccc(Cl)cc3)c3ccccc3c2=O)CC1 (stereo not drawn)	1.26
O=C(CNC(=O)c1ccc(Cl)cc1)NO	1.13
COc1cc(OC)c(C=C2C(=O)Nc3ccccc32)c(OC)c1	0.763
CN1CCCCC1CCN1c2ccccc2Sc2ccc([S+](C)[O-])cc21 (stereo not drawn) [Mesoridazine besylate]	0.737
NC(=O)N/N=C/c1ccc([N+](=O)[O-])o1	1.4
NC(C(=O)O)C(O)C(=O)O (stereo not drawn) ["d,l-threo-3-HYDROXYASPARTIC ACID"]	1.24
Cc1ncc(CSSCc2cnc(C)c(O)c2CO)c(CO)c1O	0.926
COC(=O)C1=CO[C@@H](O[C@@H]2O[C@H](CO)[C@@H](O)[C@H](O)[C@H]2O)[C@@H]2[C@@H](C)[C@@H](O)C[C@H]12	1.04
O=c1oc(Cl)c(Cl)c2ccccc12 ["3,4-Dichloroisocoumarin"]	0.967
N[C@H]1C(O)O[C@H](CO)[C@@H](O)[C@@H]1O (stereo partly drawn)	1.29

SMILES	normalized bacterial growth
C=C1C[C@H]2[C@@H]3C=C(C)C4=CC(=O)CC[C@]4(C)[C@H]3CC[C@]2(C)[C@@]1(OC(C)=O)C(C)=O	0.926
OC[C@H]1O[C@@H](Oc2ccc(O)cc2)[C@H](O)[C@@H](O)[C@@H]1O	1.15
Nc1ccc(S(=O)(=O)c2ccc(N)cc2)cc1	0.797
O=C(O)[C@H]1C[C@H](C(=O)O)N1 ["trans-Azetidine-2,4-dicarboxylic acid"]	1.09
OCCN1CCN(CCCN2c3ccccc3Sc3ccc(Cl)cc32)CC1 [Perphenazine]	1.16
CN(C)CCc1c[nH]c2ccc(Cn3cncn3)cc12	1.44
NCCCCCCCCCCN ["1,10-Diaminodecane"]	1.03
COc1cc(/C=C/C(=O)O)cc(OC)c1OC	0.969
CC1(C)OC(=O)NC1=O	1.24
N=C(N)NCC1COC2(CCCCC2)O1 (stereo not drawn) [Guanadrel sulfate]	0.957
CCC[C@H](N[C@@H](C)C(=O)N1[C@H](C(=O)O)C[C@@H]2CCCC[C@@H]21)C(=O)OCC	1.06
O=c1c(-c2ccc(O)cc2)coc2cc(O[C@@H]3O[C@H](CO)[C@@H](O)[C@H](O)[C@H]3O)cc(O)c12	1.23
Cn1nnnc1SCC1=C(C(=O)O)N2C(=O)[C@@H](NC(=O)[C@H](O)c3ccccc3)[C@H]2SC1	1.08
Cn1nnnc1SCC1=C(C(=O)O)N2C(=O)[C@@H](NC(=O)[C@H](O)c3ccccc3)[C@H]2SC1 [Cefamandole sodium salt]	1.2
COc1ccc(NS(=O)(=O)c2ccc(N)cc2)nn1	1.21
Nc1ccc(C(=O)NCC(=O)O)cc1	0.862
CCN(CC)CCNC(=O)c1cc(S(C)(=O)=O)ccc1OC [Tiapride hydrochloride]	1.15
O=C(CCCN1CC=C(n2c(=O)[nH]c3ccccc32)CC1)c1ccc(F)cc1	0.543
O=C(CCCN1CC=C(n2c(=O)[nH]c3ccccc32)CC1)c1ccc(F)cc1 [Droperidol]	1.08
Oc1c(I)cc(I)c2cccnc12	0.187
O=c1[nH]c2ccccc2c2ccccc12 [6(5H)-Phenanthridinone]	0.826
C#CCN(C)Cc1ccccc1 [Pargyline hydrochloride]	1.18

SMILES	normalized bacterial growth
CC(=O)O[C@H]1CC[C@@]2(C)[C@H](CC[C@@H]3[C@@H]2CC[C@]2(C)[C@@H]4[C@H](C[C@@H]32)O[C@]2(CC[C@@H](C)CO2)[C@H]4C)C1	0.937
CCCCCC(C)N (stereo not drawn)	0.914
COc1ccc2cc(CCC(C)=O)ccc2c1	1.07
Cc1cccc(/C=C/c2ccccc2)n1	0.913
O=C(O)CCC(=O)OC[C@@H](NC(=O)C(Cl)Cl)[C@H](O)c1ccc([N+](=O)[O-])cc1	0.601
CCOc1ccc(C(=O)c2cc(O)c(OC)c(OC)c2O)cc1	0.76
CCn1cc(C(=O)O)c(=O)c2ccc(C)nc21 [Nalidixic acid sodium]	0.0308
CCn1cc(C(=O)O)c(=O)c2ccc(C)nc21	0.0195
C[C@H]1[C@@H](O)O[C@@H]2O[C@@]3(C)CC[C@H]4[C@H](C)CC[C@@H]1[C@@]24OO3	0.894
COc1ccc(-c2oc3c(CC=C(C)C)c(O[C@@H]4O[C@H](CO)[C@@H](O)[C@H](O)[C@H]4O)cc(O)c3c(=O)c2O[C@@H]2O[C@@H](C)[C@H](O)[C@@H](O)[C@H]2O)cc1	0.757
O=c1c(O)cccc2cc(O)c(O)c(O)c12	0.168
Cc1ccc(S(=O)(=O)NC(=O)NN2CC3CCCC3C2)cc1 (stereo not drawn)	1.08
COc1ccc(-c2cc(=O)c3c(O)cc(O)cc3o2)cc1	0.879
c1ccc(C(NCCNC(c2ccccc2)c2ccccc2)c2ccccc2)cc1	0.788
CC(=O)N[C@@H](CC(=O)N[C@@H](CCC(=O)O)C(=O)O)C(=O)O	1.16
Nc1nc(=O)c2[nH]c(=O)cnc2[nH]1	1.15
O=c1c(O)c(-c2cc(O)c(O)c(O)c2)oc2cc(O)cc(O)c12	1.13
O=C(O)c1cc2ccccc2[nH]1	1.07
CCn1cc(C(=O)O)c(=O)c2cnc(N3CCNCC3)nc21	0.953
COc1cc2nc(N3CCN(C(=O)c4ccco4)CC3)nc(N)c2cc1OC [Prazosin hydrochloride]	1.2
NCCS(=O)(=O)O [Taurine]	1.15
N#CC(C#N)=C(N)/C(C#N)=C/c1ccc(O)cc1 [Tyrphostin AG 112]	1.21

Reformatted with bars between the fields: entries from further up.
SMILES | normalized bacterial growth
COc1ccc2cc(CCC(C)=O)ccc2c1 | 1.07
Cc1cccc(/C=C/c2ccccc2)n1 | 0.913
C[C@H]1[C@@H](O)O[C@@H]2O[C@@]3(C)CC[C@H]4[C@H](C)CC[C@@H]1[C@@]24OO3 | 0.894
O=c1c(O)c(-c2cc(O)c(O)c(O)c2)oc2cc(O)cc(O)c12 | 1.13
N#CC(C#N)=C(N)/C(C#N)=C/c1ccc(O)cc1 [Tyrphostin AG 112] | 1.21

Further entries:

SMILES	normalized bacterial growth
CC(=O)Oc1ccc2c(c1C(C)C)CCC1C(C)(C)CCC[C@]21C (stereo partly drawn)	0.98
COc1nc(C)nc(Cl)c1NC1=NCCN1 [Moxonidine hydrochloride]	1.33
CC(=O)OC1CCC23CC1(C)CCC2C(C)(C)CC3OC(C)=O (stereo not drawn)	0.693
C=CC[C@@H]1/C=C(\C)C[C@H](C)C[C@H](OC)[C@H]2O[C@@](O)(C(=O)C(=O)N3CCCC[C@H]3C(=O)O[C@H](/C(C)=C/[C@@H]3CC[C@@H](O)[C@H](OC)C3)[C@H](C)[C@@H](O)CC1=O)[C@H](C)C[C@@H]2OC	0.872
O=Nc1c(-c2c(O)[nH]c3ccccc23)[nH]c2ccccc12 [Indirubin-3'-oxime]	0.878
NC[C@H]1O[C@H](O[C@H]2[C@H](O[C@@H]3O[C@H](CO)[C@@H](O)[C@H]3O)[C@@H](O)[C@H](N)C[C@@H]2N)[C@H](N)[C@@H](O)[C@@H]1O [Ribostamycin sulfate salt]	1.24
NC[C@H]1O[C@H](O[C@H]2[C@H](O[C@@H]3O[C@H](CO)[C@@H](O)[C@H]3O)[C@@H](O)[C@H](N)C[C@@H]2N)[C@H](N)[C@@H](O)[C@@H]1O	1.24
CCCCC/C=C\C[C@@H](O)/C=C/c1cccc(C[C@@H](O)CCCCO)n1	0.745
COc1ccc2[nH]cc(CCNC(C)=O)c2c1	1.34
O=C([O-])c1ccccc1O.[Na+]	1.33
COc1ccc(C(=O)NCc2cccnc2)cc1C(=O)NCc1cccnc1 [Picotamide monohydrate]	1.19
COc1ccc(C(=O)NCc2cccnc2)cc1C(=O)NCc1cccnc1 [Picotamide]	1.07
CC1(C)CCC[C@](C)([C@H]2CC[C@]3(C)[C@@H]2[C@H](O)C[C@@H]2[C@@]4(C)CC[C@H](O)C(C)(C)[C@@H]4CC[C@]23C)O1	0.91
N=C(N)c1ccccc1 [Benzamidine hydrochloride]	0.778
O=C(NCCNCC(O)COc1ccc(O)cc1)N1CCOCC1 (stereo not drawn) [Xamoterol hemifumarate]	0.872
CCN(Cc1ccncc1)C(=O)C(CO)c1ccccc1 (stereo not drawn) [Tropicamide]	0.787
OC(CCN1CCCCC1)(c1ccccc1)C1CC2C=CC1C2 (stereo not drawn)	0.71
OC(CCN1CCCCC1)(c1ccccc1)C1CC2C=CC1C2 (stereo not drawn) [Biperiden hydrochloride]	0.909 ± 0.28
CCN(CC)CC#CCOC(=O)C(O)(c1ccccc1)C1CCCCC1 (stereo not drawn) [Oxybutynin Chloride]	0.988
CC(C)CCC[C@@H](C)[C@H]1CC[C@H]2[C@@H]3CC=C4CC(=O)CC[C@]4(C)[C@H]3CC[C@]12C	1.02
CC(C)N1CCN(c2ccc(OCC3COC(Cn4cncn4)(c4ccc(Cl)cc4Cl)O3)cc2)CC1 (stereo not drawn) [Terconazole]	1.1
O=C1CN2Cc3c(ccc(Cl)c3Cl)N=C2N1	0.845

As entered above.
O=c1oc(Cl)c(Cl)c2ccccc12 ["3,4-Dichloroisocoumarin"] – normalized bacterial growth: 0.967
CC(=O)OC1CCC23CC1(C)CCC2C(C)(C)CC3OC(C)=O (stereo not drawn) – normalized bacterial growth: 0.693
